Assay results: paper PMC9326099, “Odorant Receptor PxylOR11 Mediates Repellency of Plutella xylostella to Aromatic Volatiles” (Frontiers in Physiology, 2022)

Tested on: T1, PxylOR11/PxylOrco
T1 construct: full-length ORF, PxylOR11 413 residues, in pT7Ts; cRNA co-injected with PxylOrco cRNA in Xenopus oocytes; heteromer; with Odorant receptor coreceptor
Experiment: two-electrode voltage clamp, Xenopus oocytes
Type: cell-based, Plutella xylostella
Conditions: agonist, 10^-4 M in Ringer's buffer pH 7.6, holding potential -80 mV

OCc1ccccc1 [benzyl alcohol]
mean inward current at 10^-4 M (n = 7): 975 nA

O=CCc1ccccc1 [phenylacetaldehyde]
mean inward current at 10^-4 M (n = 6): 582 nA

O=Cc1ccccc1O [salicylaldehyde]
mean inward current at 10^-4 M (n = 6): 565 nA
